Sequences of proteins named here, by UniProt entry; tags and fusion partners are left off. A change or cut given only in a name is not applied to a line headed by its entry.
UniProt Q8K070: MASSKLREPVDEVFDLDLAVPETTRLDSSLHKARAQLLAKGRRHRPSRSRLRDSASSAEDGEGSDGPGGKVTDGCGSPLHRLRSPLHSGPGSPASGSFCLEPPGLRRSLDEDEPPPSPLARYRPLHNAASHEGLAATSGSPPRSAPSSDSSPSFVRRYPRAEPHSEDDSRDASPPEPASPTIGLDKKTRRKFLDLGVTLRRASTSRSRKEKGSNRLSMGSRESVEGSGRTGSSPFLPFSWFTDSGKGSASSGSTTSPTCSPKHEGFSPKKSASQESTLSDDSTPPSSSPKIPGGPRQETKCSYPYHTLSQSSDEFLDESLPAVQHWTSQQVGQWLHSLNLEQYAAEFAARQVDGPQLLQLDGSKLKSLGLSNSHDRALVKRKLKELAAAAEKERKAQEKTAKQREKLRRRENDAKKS

In article PMC9282853:

Target: HA-tagged Samd14 lacking the SAM domain (mouse) (UniProt Q8K070)
Experiment: co-IP; anti-HA agarose beads on lysates (1% NP-40 lysis buffer) of GFP-sorted G1E-ΔEnh cells expressing HA-tagged Samd14 constructs or empty vector; Western blot for Capzβ, Capzα1, Capzα2

Substance | binding
Capzβ (F-actin capping protein β subunit), endogenous in G1E cells (from UniProt P47757 1-277) | binds
Capzα2 (F-actin capping protein α2 subunit), endogenous in G1E cells (from UniProt P47754 1-286) | binds

No constants are given. Whether binding was seen depends on the method and setting. In cells and extracts the contact can be indirect. Binding calls can cover weak binding; strength is not graded here.
